Laboratory results from PMC12472621, “Excavating Precursors from Herb Pairs Polygala tenuifolia and Acori tatarinowii: Synthesis and Anticonvulsant Activity Evaluation of 3,4,5-Trimethoxycinnamic Acid (TMCA) Piperazine Amide Derivatives” (Pharmaceuticals, 2025).

tested on: maximal electroshock (MES) induced seizures; test: Maximal electroshock (MES) test; format: in vivo, mice; conditions: not given
Excerpt: Male Kunming mice (23–28 g) were maintained under controlled conditions with ad libitum access to standard pellet diet and water. Test compounds were formulated immediately prior to administration in normal saline containing 0.5% Tween-80. Our experiment was authorized by the Institutional Animal Care and Use Committee of Shaanxi University of Chinese Medicine (animal ethics certificate number: SUCMDL20210309027).
The MES test carried out following the method of Swinyard. A 60 Hz current (50 mA; 0.25 s duration) was delivered via corneal electrodes using a YSD-4G electro convulsion meter (Zhenghua Instruments, Huaibei, China, SN: ZH0056232). […] Test compounds were suspended in an identical vehicle. Protection was defined as abolition of tonic hindlimb extension.

Compound | PI (MES), protective index (TD50/ED50)
C/C=C/c1ccc(OC(=O)CCCN2CCN(C(=O)/C=C/c3cc(OC)c(OC)c(OC)c3)CC2)c(OC)c1 [A3, methoxy-4-((E)-prop-1-en-1-yl)phenyl 4-(4-((E)-3-(3,4,5-trimethoxyphenyl)acryloyl)piperazin-1-yl)butanoate] | 6.05
COc1cc(/C=C/C(=O)N2CCN(CCCC(=O)N3CCN(C(c4ccc(F)cc4)c4ccc(F)cc4)CC3)CC2)cc(OC)c1OC [A9, (E)-1-(4-(bis(4-fluorophenyl)methyl)piperazin-1-yl)-4-(4-(3-(3,4,5-trimethoxyphenyl)acryloyl)piperazin-1-yl)butan-1-one] | 8.14
COc1cc(/C=C/C(=O)N2CCN(CCCC(=O)N3CCN(c4cccc(Cl)c4Cl)CC3)CC2)cc(OC)c1OC [A12, (E)-1-(4-(2,3-dichlorophenyl)piperazin-1-yl)-4-(4-(3-(3,4,5-trimethoxyphenyl)acryloyl)piperazin-1-yl)butan-1-one] | 5.20
COc1cc(/C=C/C(=O)N2CCN(CCCC(=O)N3CCN(c4ccc(C(F)(F)F)cc4)CC3)CC2)cc(OC)c1OC [A14, (E)-1-(4-(4-(trifluoromethyl)phenyl)piperazin-1-yl)-4-(4-(3-(3,4,5-trimethoxyphenyl)acryloyl)piperazin-1-yl)butan-1-one] | 6.84
COc1cc(/C=C/C(=O)N2CCN(C(=O)CCC(=O)N3CCN(C(c4ccc(F)cc4)c4ccc(F)cc4)CC3)CC2)cc(OC)c1OC [B9, (E)-1-(4-(bis(4-fluorophenyl)methyl)piperazin-1-yl)-4-(4-(3-(3,4,5-trimethoxyphenyl)acryloyl)piperazin-1-yl)butane-1,4-dione] | 9.97
COc1cc(/C=C/C(=O)N2CCN(C(=O)CCC(=O)N3CCN(c4cccc(Cl)c4Cl)CC3)CC2)cc(OC)c1OC [B12, (E)-1-(4-(2,3-dichlorophenyl)piperazin-1-yl)-4-(4-(3-(3,4,5-trimethoxyphenyl)acryloyl)piperazin-1-yl)butane-1,4-dione] | 6.92

tested on: maximal electroshock (MES) induced seizures; test: not given; design: method as in PMID 31539780; conditions: reference drug; cited from earlier work

Compound | PI (MES), protective index (TD50/ED50)
CC(C)(C)C(O)/C=C/c1ccc2c(c1)OCO2 (stereo not shown) [STP, Stiripentol, reference compound] | 1.74 and 1.41

“And” between values parts separate entries of the source, which are not always exact repeats. Equal values may be shown once.
